Measurements reported in the supplement of paper PMC12823440, “Inhibitors supercharge kinase turnover through native proteolytic circuits” (Nature, 2025).
Counter-ions that a name gives are not always drawn. The list shows a part of the results. Hit calls seldom repeat between salt and free forms of one compound.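 In K562 cells expressing nanoluciferase-fused kinases, luminescence was recorded at 4 h intervals between 2 and 18 h, normalized as percent of control with DMSO at 100% and a positive control at 0%. A significant (2 sigma) signal drop marks a time point as decreased. The authors' rule for a hit is not shown and takes in more than the number of time points.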

Sequences of proteins named here, by UniProt entry; tags and fusion partners are left off. A change or cut given only in a name is not applied to a line headed by its entry.
UniProt Q8IWU2: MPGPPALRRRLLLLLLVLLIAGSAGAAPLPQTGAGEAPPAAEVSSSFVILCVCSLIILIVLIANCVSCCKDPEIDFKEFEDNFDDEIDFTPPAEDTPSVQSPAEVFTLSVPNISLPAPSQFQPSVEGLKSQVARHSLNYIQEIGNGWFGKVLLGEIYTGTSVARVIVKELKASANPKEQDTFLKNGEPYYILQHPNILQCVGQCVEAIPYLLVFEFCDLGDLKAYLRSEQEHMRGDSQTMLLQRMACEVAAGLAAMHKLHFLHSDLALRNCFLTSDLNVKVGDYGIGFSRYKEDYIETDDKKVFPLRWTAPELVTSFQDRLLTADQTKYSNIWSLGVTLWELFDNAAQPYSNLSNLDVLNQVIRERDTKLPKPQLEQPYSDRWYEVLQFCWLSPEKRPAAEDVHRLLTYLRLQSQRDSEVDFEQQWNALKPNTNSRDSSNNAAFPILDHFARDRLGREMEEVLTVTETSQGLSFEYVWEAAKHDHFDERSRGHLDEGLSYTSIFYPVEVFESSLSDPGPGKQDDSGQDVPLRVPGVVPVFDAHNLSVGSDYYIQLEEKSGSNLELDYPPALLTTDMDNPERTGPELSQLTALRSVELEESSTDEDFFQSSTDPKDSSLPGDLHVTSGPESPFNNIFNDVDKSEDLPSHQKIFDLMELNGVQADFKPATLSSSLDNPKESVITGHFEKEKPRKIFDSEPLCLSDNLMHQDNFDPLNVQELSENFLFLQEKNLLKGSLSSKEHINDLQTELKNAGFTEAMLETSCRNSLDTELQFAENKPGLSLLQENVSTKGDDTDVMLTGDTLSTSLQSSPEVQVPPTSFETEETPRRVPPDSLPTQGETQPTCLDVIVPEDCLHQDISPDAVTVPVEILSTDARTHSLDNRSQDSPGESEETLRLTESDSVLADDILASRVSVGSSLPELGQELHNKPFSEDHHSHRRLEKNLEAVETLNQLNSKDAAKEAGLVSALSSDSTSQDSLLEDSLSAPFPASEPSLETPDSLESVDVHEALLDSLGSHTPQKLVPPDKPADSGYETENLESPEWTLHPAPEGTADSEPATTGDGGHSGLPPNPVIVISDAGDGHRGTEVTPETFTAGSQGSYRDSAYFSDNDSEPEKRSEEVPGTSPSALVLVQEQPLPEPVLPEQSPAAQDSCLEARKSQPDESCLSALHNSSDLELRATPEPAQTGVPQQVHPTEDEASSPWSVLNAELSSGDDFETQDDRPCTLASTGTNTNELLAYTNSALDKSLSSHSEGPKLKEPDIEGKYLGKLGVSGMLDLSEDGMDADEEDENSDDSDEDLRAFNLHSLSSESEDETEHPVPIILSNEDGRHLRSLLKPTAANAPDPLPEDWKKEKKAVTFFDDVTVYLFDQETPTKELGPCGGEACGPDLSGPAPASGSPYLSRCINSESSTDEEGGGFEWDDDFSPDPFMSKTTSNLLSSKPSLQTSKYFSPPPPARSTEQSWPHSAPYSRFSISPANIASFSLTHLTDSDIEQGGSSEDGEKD

The molecules below were run against LMTK2 (UniProt Q8IWU2) (assay: kinase-Nluc reporter destabilization hit call (1 = scored as downregulated) (binary); higher = compound decreases kinase abundance). Conditions: 2.5 µM; K562; 2-18 h.

Structure (SMILES) | kinase-Nluc reporter destabilization hit call
Nc1nc(Nc2ccc(S(N)(=O)=O)cc2)nn1C(=O)c1c(F)cccc1F | inactive: 0
CCOc1cc2ncc(C#N)c(Nc3ccc(F)c(Cl)c3)c2cc1NC(=O)/C=C/CN(C)C [Pelitinib] | inactive: 0
Nc1ncnc2c1c(-c1cnc3[nH]ccc3c1)nn2C1CCCC1 | inactive: 0
CCN(CC)CCNC(=O)c1c(C)[nH]c(/C=C2\C(=O)Nc3ccc(F)cc32)c1C [Sunitinib] | inactive: 0
C=CC(=O)Nc1cc2c(Nc3ccc(F)c(Cl)c3)ncnc2cc1OCCCN1CCOCC1 [Canertinib (dihydrochloride)] | inactive: 0
Cc1[nH]c(/C=C2\C(=O)Nc3ccc(F)cc32)c(C)c1C(=O)NC[C@H](O)CN1CCOCC1 | inactive: 0
Cc1cc(Nc2cc(N3CCN(C)CC3)nc(/C=C/c3ccccc3)n2)n[nH]1 [ENMD-2076 (Tartrate)] | inactive: 0
O=C(Nc1cccc(Nc2nccc(Nc3cccc(C(F)(F)F)c3)n2)c1)C1CC1 [Aurora kinase inhibitor-3] | inactive: 0
CN1CCN(c2ccc3nc(-c4c(N)c5c(F)cccc5[nH]c4=O)[nH]c3c2)CC1 [Dovitinib] | inactive: 0
O=C1NCCc2[nH]c(-c3ccncc3)cc21 | inactive: 0
CC1(C)CNc2cc(NC(=O)c3cccnc3NCc3ccncc3)ccc21 [Motesanib (Diphosphate)] | inactive: 0
CC(=O)c1c(C)c2cnc(Nc3ccc(N4CCN(C(=O)CCCCCC(=O)N[C@H](C(=O)N5C[C@H](O)C[C@H]5C(=O)NCc5ccc(-c6scnc6C)cc5)C(C)(C)C)CC4)cn3)nc2n(C2CCCC2)c1=O | inactive: 0
COc1cc2/c(=N/c3ccc(Br)cc3F)nc[nH]c2cc1OCC1CCN(C)CC1 [Vandetanib] | inactive: 0
CC(C)n1nc(-c2cc3cc(O)ccc3[nH]2)c2c(N)ncnc21 [Torkinib] | inactive: 0
Cc1nc(Nc2ncc(C(=O)Nc3c(C)cccc3Cl)s2)cc(N2CCN(CCO)CC2)n1 [Dasatinib] | inactive: 0
CC1(C)C(=O)N([C@H]2CCc3c(O)cccc32)c2nc(Nc3cccc(CN4CCCC4)c3)ncc21 | inactive: 0
CNC(=O)c1cc(Oc2ccc(NC(=O)Nc3ccc(Cl)c(C(F)(F)F)c3)cc2)ccn1 [Sorafenib] | inactive: 0
CN1CCN(c2ccc3nc(-c4c(N)c5c(F)cccc5[nH]c4=O)[nH]c3c2)CC1 [Dovitinib (lactate)] | inactive: 0
CC1(C)CNc2cc(NC(=O)c3cccnc3NCc3ccncc3)ccc21 [Motesanib] | inactive: 0
Cc1cc(Nc2cc(N3CCN(C)CC3)nc(/C=C/c3ccccc3)n2)n[nH]1 | inactive: 0

2 records picked at random from those above:
Structure (SMILES) | kinase-Nluc reporter destabilization hit call
CNC(=O)c1cc(Oc2ccc(NC(=O)Nc3ccc(Cl)c(C(F)(F)F)c3)cc2)ccn1 [Sorafenib] | inactive: 0
CC(C)n1nc(-c2cc3cc(O)ccc3[nH]2)c2c(N)ncnc21 [Torkinib] | inactive: 0
